Assay results from PubChem BioAssay AID1567 (National Center for Advancing Translational Sciences (NCATS), 2009).
Inconclusive results, whose numbers are uncertain, are shown with a selection of clear calls. Potencies beside an inconclusive call are fits to weak or partial responses and may not hold up. Activity calls are given as the source filed them. The call rests on the fitted dose curve; in most records, active means well fitted inhibition curve with a large enough effect; inconclusive means small, poorly fitted or top-dose-only effect, or effect the other way; inactive means no such curve, though single readings can be large or run the other way.

Amino acid sequences for entries named in this document (tags omitted). A change or cut given only in a name is not applied to a line headed by its entry.
UniProt P10828: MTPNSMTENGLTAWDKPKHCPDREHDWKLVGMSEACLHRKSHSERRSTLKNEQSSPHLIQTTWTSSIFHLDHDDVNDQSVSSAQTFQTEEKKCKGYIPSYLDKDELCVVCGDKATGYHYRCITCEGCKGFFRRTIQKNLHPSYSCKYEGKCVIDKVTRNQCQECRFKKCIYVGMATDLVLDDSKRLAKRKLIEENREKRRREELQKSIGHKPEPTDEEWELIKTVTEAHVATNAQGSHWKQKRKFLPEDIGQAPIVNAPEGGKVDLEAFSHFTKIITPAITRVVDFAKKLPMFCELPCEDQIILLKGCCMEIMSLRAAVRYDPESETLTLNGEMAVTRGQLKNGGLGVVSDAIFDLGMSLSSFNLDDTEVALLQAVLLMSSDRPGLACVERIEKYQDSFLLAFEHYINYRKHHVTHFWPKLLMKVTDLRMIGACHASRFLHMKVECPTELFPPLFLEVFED

Molecular target: Thyroid hormone receptor beta (Homo sapiens) (UniProt P10828)
Assay: Cell-based Gene Reporter Secondary Assay to Characterize qHTS Inhibitors of the Interaction of Thyroid Hormone Receptor and Steroid Receptor Coregulator 2
Settings: WRO cells TRbeta TRE-luciferase, T3-stimulated, 16 h; series mostly up to 29.9 µM
Excerpt: NIH Molecular Libraries Probe Production Network [MLPCN] NIH Chemical Genomics Center [NCGC] MLPCN Grant: DK058080 Assay Provider: R. Kip Guy, St. Jude Children's Research Hospital NCGC Assay Overview: Thyroid receptor (TR) regulates many homeostatic processes including basal metabolism, cardiovascular function, body weight, and lipid trafficking. TR modulators are potential therapeutics for obesity and hyperlipidemias but current thyroid analogs have undesirable side effects, particularly cardiac stimulation. This secondary assay characterized selected actives identified in the qHTS for Inhibitors of the Interaction of Thyroid Hormone Receptor and Steroid Receptor Coregulator 2. The human follicular thyroid carcinoma cell line WRO (kindly provided by Dr. M. D. Ringel) stably expresses TRbeta and a luciferase reporter gene fused to TR response element. The addition of T3 ligand elevates expression of the TRE luciferase reporter. This assay measures the transcriptional activity of compounds.
NCGC Assay Protocol Summary: Cells were maintained in RPMI 1640 culture medium supplemented with 10% heat-inactivated FBS, 0.33 mg/ml hygromycin, 0.33 mg/ml geneticin, 50 units/ml penicillin, 50 ug/ml streptomycin. Cells were harvested and resuspended at 330,000 cells/ml in assay medium (50% DMEM 50% F-12 medium without Phenol-Red (Cellgro #16-405-CV), L-glutamine, 10% heat inactivated and charcoal treated FBS, 100 uM non-essential amino acid, 50 units/ml penicillin, 50 ug/ml streptomycin). Cells were dispensed at 10,000 cells/30 ul/well into 384 well plates (Corning 3917) and incubated 12 h at 37 C and 5% CO2. Compounds and T3 (100nM final concentration) were added using a pin tool and plates were incubated 16 h incubation at 37 C and 5% CO2. Following incubation, plates were equilibrated at ambient temperature for 30 min, 30 ul of Bright-Glo (Promega) was added and luminescence was detected by an EnVision (PerkinElmer).

| Structure (SMILES) | Potency |
| --- | --- |
| COC(=O)c1ccccc1-c1ccc(C(c2c(C)[nH][nH]c2=O)c2c(C)[nH][nH]c2=O)o1 | inconclusive: 22.4 µM [activator, single point] |
| Cn1c(CCN2CCCCC2)nc2cc(NS(=O)(=O)c3ccc(Cl)cc3)ccc21 | inconclusive: 7.08 µM [inhibitor, full curve] |
| COn1c2c(c3c4nonc4ccc31)CCCC2 | inconclusive: 15.8 µM [activator, partial curve, poor fit] |
| CN1c2ccccc2C(C)(C)C12C=Nc1c(ccc3ccccc13)O2 (stereo not given) | active: 4.47 µM |
| O=c1[nH]c(Nc2ccccc2)cc2ccccc12 | inconclusive: 7.08 µM [activator, partial curve, poor fit] |
| Cn1c(NNC(=O)c2c(F)cccc2F)cc(=O)n(C)c1=O | inactive |
| CCCc1nc2c(=O)n(C)c(=O)nc-2n(C)n1 | active: 0.794 µM |
| COc1ccc(-c2nc(CS(=O)CC(=O)NCc3ccccn3)c(C)o2)cc1 (stereo not given) | inactive |
| Cn1c(-c2ccc(=O)[nH]c2)nc2ccccc21 | inconclusive: 0.112 µM [activator, full curve, poor fit] |
| Nc1cccnc1Sc1cc(Cl)c(Cl)cc1Cl | inactive |
| CC1=NN(Cc2ccccc2)C(=O)C1 | inactive |
| O=C(O)C1C2C=CC(O2)C1C(=O)Nc1ccc(S(=O)(=O)N2CCc3ccccc32)cc1 (stereo not given) | inconclusive: 0.316 µM [activator, full curve, poor fit] |
| Cc1nnc(SCC(=O)Nc2ccc(N(C)C)cc2)[nH]c1=O | inactive |
| O=c1cc(C23CC4CC(CC(C4)C2)C3)[nH][nH]1 | inactive |
| N#Cc1c(NC(=O)c2ccccc2Cl)n(Cc2ccccc2)c2nc3ccccc3nc12 | inconclusive: 0.178 µM [activator, full curve, poor fit] |
| CN1N=C(C(C)(C)C)CC1=O | inactive |
| O=C1CNC(=S)N1c1nc(-c2ccccc2)cs1 | inconclusive: 3.55 µM [activator, full curve, poor fit] |
| CN(C(=S)Nc1cccnc1)c1ccc(O)cc1 | inconclusive: 0.0631 µM [activator, full curve, poor fit] |
| CC(C)(C)N1C(=O)Cc2c1nc(N)c1c(N)nc(N3CCCCC3CO)c(C#N)c21 (stereo not given) | inconclusive: 7.94 µM [activator, partial curve] |
| O=C(O)/C=C/C(=O)Nc1ccc(OC(F)(F)F)cc1Br | inconclusive: 5.62 µM [inhibitor, full curve] |

| Structure (SMILES) | Potency |
| --- | --- |
| CCCCOc1ccc(C(=O)CCN2CCOCC2)cc1 | inconclusive: 11.2 µM [inhibitor, partial curve, poor fit] |
| COc1ccc(C(=O)/C=C/Nc2ccc(S(=O)(=O)Nc3ncccn3)cc2)cc1 | inconclusive: 0.355 µM [activator, full curve, poor fit] |
| Cc1[nH][nH]c(=O)c1C(c1ccc(-c2ccc(Cl)c(Cl)c2)o1)c1c(C)[nH][nH]c1=O | inconclusive: 14.1 µM [inhibitor, partial curve, poor fit] |
| CN1CCc2ccc3c4c2[C@]1(C)Cc1cccc(c1-4)OCO3 | active: 7.94 µM |
| O=C(O)/C=C/C(=O)Nc1ccc(SC(F)(F)C(F)(F)C(F)(F)F)cc1 | inconclusive: 5.62 µM [inhibitor, full curve] |
| Cc1nc2c3cc(F)ccc3n(Cc3ccccc3F)c2s1 | inconclusive: 15.8 µM [inhibitor, partial curve] |
| C=CCNC(=O)/C(C#N)=C\c1cc(Cl)c(OCC)c(OC)c1 | inactive |
| Oc1ccc2ccccc2c1C=NC12CN3CCN(CN(C3)C1)C2 | inconclusive: 0.282 µM [activator, full curve, poor fit] |
| CCOC(=O)c1cnc2nc(NCc3ccc(OC)c(OC)c3)[nH]n2c1=O | inactive |
| COC(=O)/C(=C/Nc1ccc(O)cc1)[N+](=O)[O-] | inconclusive: 12.6 µM [inhibitor, partial curve] |
| CCC(CNc1cc(OC)cc2cccnc12)NC1CCCCC1 (stereo not given) | active: 6.31 µM |
| COc1cc(NCCCC(C)N)c2ncccc2c1 (stereo not given) | active: 3.16 µM |
| CC(NC(=O)Nc1ccc(O)cc1)(C(F)(F)F)C(F)(F)F | inactive |
| Cc1ccc(-c2nc(S(=O)(=O)c3ccc(F)cc3)c(SCC(=O)NCC3CCCO3)o2)cc1 (stereo not given) | inactive |
| CCN(C(=O)C1CCCN(c2ncnc3onc(-c4ccc(F)cc4)c23)C1)c1ccccc1 (stereo not given) | inconclusive: 6.31 µM [inhibitor, full curve] |
| CC1(C)CC(=O)C(N=Nc2cccc(S(=O)(=O)N3CCOCC3)c2)=C(O)C1 | inconclusive: 6.31 µM [activator, partial curve, poor fit] |
| CN(CCO)c1nc(N)c2c(N)nc3c(c2c1C#N)CC(=O)N3C1CCCC1 | inconclusive: 0.02 µM [activator, full curve, poor fit] |
| CCOC(=O)C(NC(=O)Nc1ccc(O)cc1)(c1ccccc1)C(F)(F)F (stereo not given) | inactive |
| Cc1cc(N=Cc2c(O)ccc3ccccc23)no1 | inconclusive: 1 µM [activator, full curve, poor fit] |
| Oc1ccc2ccccc2c1/C=N/c1nccs1 | inconclusive: 0.0251 µM [activator, full curve, poor fit] |

Single values from the results shown.
Potency, `CC1(C)CC(=O)C(N=Nc2cccc(S(=O)(=O)N3CCOCC3)c2)=C(O)C1` is entered as inconclusive: 6.31 µM [activator, partial curve, poor fit]
Potency, `CCN(C(=O)C1CCCN(c2ncnc3onc(-c4ccc(F)cc4)c23)C1)c1ccccc1` (stereo not given) is entered as inconclusive: 6.31 µM [inhibitor, full curve]
Potency, `Oc1ccc2ccccc2c1C=NC12CN3CCN(CN(C3)C1)C2` is entered as inconclusive: 0.282 µM [activator, full curve, poor fit]
